This note sets out measurements from publication PMC5534431.

By UniProt entry, the sequences of proteins in these tests, tags left out.
UniProt O15379: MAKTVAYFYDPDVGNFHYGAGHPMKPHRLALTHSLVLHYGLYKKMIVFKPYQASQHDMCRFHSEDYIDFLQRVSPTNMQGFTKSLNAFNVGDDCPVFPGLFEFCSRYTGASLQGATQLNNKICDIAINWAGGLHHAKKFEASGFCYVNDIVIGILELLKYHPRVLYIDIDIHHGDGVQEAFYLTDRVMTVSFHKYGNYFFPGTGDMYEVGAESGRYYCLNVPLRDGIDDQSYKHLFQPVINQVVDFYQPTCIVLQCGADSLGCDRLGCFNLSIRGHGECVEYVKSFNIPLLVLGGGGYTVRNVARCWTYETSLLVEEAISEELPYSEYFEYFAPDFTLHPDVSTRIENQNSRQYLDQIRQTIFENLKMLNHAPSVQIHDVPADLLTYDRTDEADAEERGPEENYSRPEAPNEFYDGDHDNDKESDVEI

These are yes or no findings as the source states them, for the method shown. In cells and extracts the contact can be indirect. Some results given as binding are weak or reduced against the parent protein; the word gives no strength. Where a sequence is shown, tags or fusion partners need not be part of it.

For this experiment, the target named is Flag-HDAC3 (histone deacetylase 3) (UniProt O15379). Nature of the experiment: co-IP; HEK293T cells transfected with Flag-HDACs and HA-RORα; lysis buffer 200 mM NaCl, 50 mM Tris-HCl pH 8.0, 0.5% NP40; anti-Flag antibody overnight, protein A/G agarose beads; washed with 150 mM NaCl, 50 mM Tris-HCl pH 8.0, 0.5% NP40; immunoblot.

B1: HA-RORα (retinoic acid receptor-related orphan receptor-α) (protein, UniProt P35398 1-523)
chain: MESAPAAPDPAASEPGSSGADAAAGSRETPLNQESARKSEPPAPVRRQSYSSTSRGISVTKKTHTSQIEIIPCKICGDKSSGIHYGVITCEGCKGFFRRSQQSNATYSCPRQKNCLIDRTSRNRCQHCRLQKCLAVGMSRDAVKFGRMSKKQRDSLYAEVQKHRMQQQQRDHQQQPGEAEPLTPTYNISANGLTELHDDLSNYIDGHTPEGSKADSAVSSFYLDIQPSPDQSGLDINGIKPEPICDYTPASGFFPYCSFTNGETSPTVSMAELEHLAQNISKSHLETCQYLREELQQITWQTFLQEEIENYQNKQREVMWQLCAIKITEAIQYVVEFAKRIDGFMELCQNDQIVLLKAGSLEVVFIRMCRAFDSQNNTVYFDGKYASPDVFKSLGCEDFISFVFEFGKSLCSMHLTEDEIALFSAFVLMSADRSWLQEKVKIEKLQQKIQLALQHVLQKNHREDGILTKLICKVSTLRALCGRHTEKLMAFKAIYPDIVRLHFPPLYKELFTSEFEPAMQIDG
With B1, the binding entry is reported as “binds”.
